Library screening results

Protein sequences, listed by entry. Tags and fused reporters are not part of them.
UniProt E9BF75, entry or part of it: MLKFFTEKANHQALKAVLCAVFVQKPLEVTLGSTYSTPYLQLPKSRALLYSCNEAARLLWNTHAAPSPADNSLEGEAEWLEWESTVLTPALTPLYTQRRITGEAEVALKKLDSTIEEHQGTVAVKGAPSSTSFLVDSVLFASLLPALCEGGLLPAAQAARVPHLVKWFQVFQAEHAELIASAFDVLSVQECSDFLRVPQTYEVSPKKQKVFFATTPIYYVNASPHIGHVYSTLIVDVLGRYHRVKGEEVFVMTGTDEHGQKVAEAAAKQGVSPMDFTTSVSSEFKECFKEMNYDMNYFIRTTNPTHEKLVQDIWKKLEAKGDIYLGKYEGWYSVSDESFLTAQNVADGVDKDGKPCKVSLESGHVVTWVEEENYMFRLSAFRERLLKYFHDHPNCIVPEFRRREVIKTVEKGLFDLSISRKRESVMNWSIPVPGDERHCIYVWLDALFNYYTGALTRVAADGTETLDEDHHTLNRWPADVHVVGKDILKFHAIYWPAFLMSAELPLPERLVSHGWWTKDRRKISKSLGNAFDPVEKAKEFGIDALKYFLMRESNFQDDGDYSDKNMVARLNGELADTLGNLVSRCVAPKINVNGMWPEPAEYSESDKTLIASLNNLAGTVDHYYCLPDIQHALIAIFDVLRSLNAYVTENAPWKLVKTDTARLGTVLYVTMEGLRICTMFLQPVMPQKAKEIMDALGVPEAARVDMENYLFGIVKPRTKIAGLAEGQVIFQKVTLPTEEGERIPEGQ

LdMetRS: 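Primary screen of methionyl-tRNA synthetase; the read-out is not stated. Target: Methionyl-tRNA synthetase (putative), Leishmania donovani (UniProt E9BF75). The test concentration is not given. The values are filed as inhibition. Size under these conditions: about 68,000 compounds, about 24 of them at 50% or above in at least one test.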
Mtb heat-shock: 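Assay on Mycobacterium tuberculosis, filed only as a heat shock assay from Cornell; the read-out is not stated. The concentration is filed as 10 mM, unlikely as a test dose, so the dose is not known. Direction is inferred from retests: higher values go with stronger inhibition. Of about 69,000 compounds tested this way, about 930 (1.4%) reached 50% or more in at least one test.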

All values are in %. How 0% and 100% were set is not recorded. Most values in the screen are low, and negative values occur. Compounds were drawn at random from those tested, without regard to their results. A dash means the value is not listed here; it may have been measured.

| compound | LdMetRS | Mtb heat-shock |
|---|---|---|
| `OCC1CCCCN1CCn1ccnc1-c1nc2ccccc2[nH]1` (stereo not given) | 17.38 | 15.75 |
| `CC(C)n1ccnc1C1CCN(C(=O)C2COc3ccccc3O2)CC1` (stereo not given) | 17.78 | 2.367 |
| `O=C(O)C(F)(F)F.c1coc(CN2CCn3c(COCC4CC4)nnc3C2)c1` | - | 21.17 |
| `Cc1cc2nc(C(C)C)cc(N(C)CC3CCCN(CCO)C3)n2n1` (stereo not given) | 12.18 | -2.753 |
| `Cc1ccc2nc(CSCC(=O)Nc3nnc(C(C)C)s3)cc(=O)n2c1` | 8.168 | -3.175 |
| `[H][C@]12CC[C@@]3(N=C(C)N(CCOC)C3=O)[C@@]1([H])CN(C(=O)NCC(C)C)C2` | - | 19.36 |
| `CCc1ccc(CN2CCNC(C(=O)N3CCN(C)CC3)C2)o1` (stereo not given) | 1.805 | 17.37 |
| `O=C1CC2(CCCNC2)C(=O)N1Cc1cccc(F)c1` (stereo not given) | 5.042 | - |
| `CNS(=O)(=O)c1ccc(CNC(=O)Nc2ccccn2)s1` | 17.12 | -1.256 |
| `O=C(c1cscn1)N1CCC(Cc2cnc3[nH]ccc3c2)C1` (stereo not given) | 6.25 | -9.487 |
| `Cc1nc(-c2ccccc2)sc1CSCCC(N)=O` | 7.617 | -23.11 |
| `CC(C)c1nc(C(=O)N2CCc3ccccc3C2C(=O)O)cs1` (stereo not given) | -3.014 | 4.68 |
| `O=C(Cc1cc(-c2ccc3c(c2)OCO3)on1)NC1CCCC1` | 2.174 | 3.072 |
| `CN(CC(=O)N1CCCC1c1noc(C2CC2)n1)Cc1ccccc1` (stereo not given) | 7.407 | -2.391 |
| `Nc1cc2c(nn1)CCN(C(=O)c1ccc(-c3ccco3)[nH]c1=O)C2` | 12.04 | -14.28 |
| `Cn1ccc(C(=O)NCc2cccc(Cn3ccnc3)c2)cc1=O` | 6.959 | 1.04 |
| `O=C(c1cc(-c2cccs2)cs1)N1CCSCC1` | 13.88 | 27.35 |
| `COc1ccc(C(C)N2CCC(CNC(C)=O)CC2)cc1Cl` (stereo not given) | 12.26 | 19.07 |
| `CN1CC(=O)N(c2cnn(C)c2)CC12CCN(Cc1ccccc1)C2.O=C(O)C(F)(F)F.O=C(O)C(F)(F)F` (stereo not given) | - | -27.85 |
| `N#Cc1cccnc1NCCNC(=O)N1CCSCC1` | 0 | -1.319 |
| `Cc1oc(-c2ccco2)nc1CC(=O)N1CCC(CCO)C1` (stereo not given) | 10.65 | 23.55 |
| `O=C(O)C(F)(F)F.O=C(O)C(F)(F)F.c1cncc(COCc2nnc3n2CCN(Cc2ccsc2)C3)c1` | - | -26.04 |
| `[H][C@@]12CN(c3ncc(Cl)cc3F)C[C@]1(C(=O)O)CN(CC1CC1)C2=O` | - | 14.38 |
| `Cc1cc(C)nc(N2CCOC(c3cc(CCO)[nH]n3)C2)n1` (stereo not given) | 13.98 | 6.971 |
| `O=C(O)C(F)(F)F.[H][C@@]12COC[C@]1(CNC(=O)C1CC1)CN(Cc1cccc(C)c1)C2` | - | 2.9 |
| `NC(=O)C1CCCCN1C(=O)c1ccc(Br)s1` (stereo not given) | 9.023 | -34.15 |
| `CCCN1CCC(CC(=O)N(C)C(C)c2cncs2)CC1` (stereo not given) | -0.2584 | -28.48 |
| `O=C(CCCc1ccccn1)N1CCSC2(CCCCC2)C1` | 10.42 | -6.013 |
| `Cn1cnc2c1C(C(=O)N1CCCC1)N(CC1CC1)CC2.O=C(O)C(F)(F)F` (stereo not given) | - | -41.5 |
| `O=C(c1cnccn1)N1CCCC(Cc2ccccn2)C1` (stereo not given) | 5.901 | 7.187 |
| `CN(C)C(=O)N1CCN(C(=O)c2ccccc2)CC2(CNC(=O)C2)C1` (stereo not given) | 19.71 | -0.1466 |
| `CNC(=O)c1cccnc1NCCOc1ccccc1` | - | -3.518 |
| `O=C(O)C(F)(F)F.O=C1COC2(CCN(Cc3ccoc3)CC2)CN1` | - | -39.38 |
| `N#Cc1cccc(CS(=O)(=O)NC(Cc2ccccc2)C(N)=O)c1` (stereo not given) | 14.09 | 9.052 |
| `Cn1cc(C(=O)NCc2ccc(N3CCNC(=O)C3)c(F)c2)cn1` | 12.37 | -16.58 |
| `CCC1c2cccn2CCN1C(=O)c1ccc2nonc2c1` (stereo not given) | 9.735 | 42.78 |
| `O=C(NCc1ccccn1)[C@H]1COC[C@H]2CN(c3ncccn3)C[C@H]21` | 16.06 | - |
| `Cc1cc(NC(C)c2csc(C)n2)n2nc(C)c(C)c2n1` (stereo not given) | 9.756 | 26.88 |
| `Cl.Oc1cc(C2CCNCC2)nc(-c2ccsc2)n1` | - | -3.533 |
| `O=S(=O)(C1CC1)N1CCC2(CC1)CN(Cc1nccs1)CCO2` | 20.8 | - |
| `O=C(C1CCOC1)N1C[C@H]2CN(Cc3cccnc3)C(=O)[C@H]2C1` (stereo not given in full) | 7.625 | - |
| `CCNc1cc2c(nn1)CCN(C(=O)c1c(C)noc1C)C2` | 15.36 | 8.487 |
| `CN(c1cccnn1)[C@@H]1CC[C@@H]2CN(Cc3ccccc3C(=O)O)C[C@@H]21` | 13.44 | - |
| `CN(C)C(=O)C1CCCN1CCCNC(=O)c1ccccc1F` (stereo not given) | 6.404 | 16.07 |
| `CC1(C)OCC2(CO1)CN(S(=O)(=O)c1ccc(Cl)s1)C2` | 15.11 | 2.422 |
| `CSc1ccc(-c2noc(CN(CC(C)C)CC(C)C)n2)cc1` | 18.54 | 11.1 |
| `O=C(O)c1cn(-c2ccccn2)c(=O)c2ccccc12` | 15.63 | 9.633 |
| `COc1cccc(OCCCc2cncc(C(N)=O)c2)c1` | 4.467 | -10.28 |
| `CC(=O)NCC1CCC2(CCN(c3nccc(C4CCCC4)n3)CC2)O1` (stereo not given) | 21.88 | -44.86 |
| `Cc1ncc(CN2CCOC(c3ccc(-c4cc[nH]n4)cn3)C2)s1` (stereo not given) | 13.5 | -8.706 |
| `Cc1ccc(C(=O)NCC2CCCCO2)c(=O)[nH]1` (stereo not given) | 6.684 | 4.024 |
| `CCN1CC[C@]2(CN(C(=O)C3CCOCC3)C[C@H]2c2ccccc2)C1=O` | 6.62 | -9.047 |
| `O=C(C1CC1)N1CCC(c2nc(O)c3c(n2)CCN(C2CCCC2)C3)C1` (stereo not given) | 5.923 | 0.8192 |
| `Cn1ccnc1CN1CCN2C[C@H](Oc3cccc(F)c3)C[C@H]2C1` | 5.926 | - |
| `CN1CCC(NC(=O)Nc2cnn(-c3ccccc3Cl)c2)CC1` | 20.44 | 9.054 |
| `Cn1c(N2CCOCC2)nc2cc(C(=O)NCc3cccnc3)ccc21` | 8.782 | 2.303 |
| `Cc1ccc2c(n1)N(Cc1cccnc1)CCN(Cc1cnn(C)c1)C2` | 15.93 | 18.98 |
| `Cc1cccc(C(=O)NCCNCC2CNc3ccnn3C2)c1` (stereo not given) | 9.783 | -14.85 |
| `O=C(NC1COC2(CCN(CC3CCC3)CC2)C1)c1ccccn1.O=C(O)C(F)(F)F` (stereo not given) | - | -6.828 |
| `O=C(Cc1cn2ccsc2n1)N(Cc1ccco1)CC1CCCO1` (stereo not given) | 6.849 | -15.33 |
| `COCc1cc(NCCc2ccccn2)n2nccc2n1` | 7.396 | 32.57 |

The last 4 entries again:

| compound | LdMetRS | Mtb heat-shock |
|---|---|---|
| `Cc1cccc(C(=O)NCCNCC2CNc3ccnn3C2)c1` (stereo not given) | 9.783 | -14.85 |
| `O=C(NC1COC2(CCN(CC3CCC3)CC2)C1)c1ccccn1.O=C(O)C(F)(F)F` (stereo not given) | - | -6.828 |
| `O=C(Cc1cn2ccsc2n1)N(Cc1ccco1)CC1CCCO1` (stereo not given) | 6.849 | -15.33 |
| `COCc1cc(NCCc2ccccn2)n2nccc2n1` | 7.396 | 32.57 |

From ChEMBL document CHEMBL3988442, “University of Dundee, Small-Polar-MMV Screening Library” (2021).